# Results as given in the supplement of paper PMC8728848.
# The other results are listed elsewhere or left out.
# How the values were obtained:
# Experiment in all cases: glycan array binding signal (z-score within array); higher = stronger binding
# Conditions in all cases: glycan notation: IUPAC condensed, linker removed
# [1] = target: GalNAc3S(b1-4)[Fuc(a1-3)]GlcNAc
# How it was run: (§1)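 Arrays were curated from the Consortium for Functional Glycomics database, 3228 in total, and kept only where the protein sequence was available. Binding is expressed as a within-array Z-score. This score was averaged across arrays of the same protein sequence at different concentrations or buffers and across linkers, and negative values can be read as non-binding.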
# [2] = target: GalNAc4S6S(b1-4)GlcNAc
# How it was run: as §1
# [3] = target: GalNAc6S(b1-4)GlcNAc
# How it was run: as §1
# [4] = target: Glc(a1-4)Glc
# How it was run: as §1
# [5] = target: Glc(a1-4)Glc(a1-4)Glc(a1-4)Glc
# How it was run: as §1
# [6] = target: Glc(a1-6)Glc(a1-6)Glc
# How it was run: as §1
# [7] = target: Glc(a1-6)Glc(a1-6)Glc(a1-6)Glc
# How it was run: as §1
# [8] = target: Glc(b1-4)Glc
# How it was run: as §1
# [9] = target: Glc(b1-6)Glc
# How it was run: as §1
# [10] = target: GlcA(b1-3)Gal
# How it was run: as §1
# [11] = target: GlcA(b1-3)GlcNAc
# How it was run: as §1
# [12] = target: GlcA(b1-6)Gal
# How it was run: as §1
# [13] = target: GlcA3S(b1-3)Gal(b1-4)GlcNAc(b1-2)Man
# How it was run: as §1
# [14] = target: GlcA3S(b1-3)Gal(b1-4)GlcNAc(b1-3)Gal(b1-4)Glc
# How it was run: as §1
# [15] = target: GlcNAc(a1-3)Gal(b1-4)GlcNAc
# How it was run: as §1
# [16] = target: GlcNAc(a1-4)Gal(b1-3)GlcNAc
# How it was run: as §1
# [17] = target: GlcNAc(a1-4)Gal(b1-4)GalNAc
# How it was run: as §1
# [18] = target: GlcNAc(a1-4)Gal(b1-4)GlcNAc
# How it was run: as §1
# [19] = target: GlcNAc(a1-4)Gal(b1-4)GlcNAc(b1-3)Gal(b1-4)Glc
# How it was run: as §1
# [20] = target: GlcNAc(a1-4)Gal(b1-4)GlcNAc(b1-3)Gal(b1-4)GlcNAc
# How it was run: as §1
# [21] = target: GlcNAc(a1-4)Gal(b1-4)GlcNAc(b1-3)Gal(b1-4)GlcNAc(b1-3)Gal(b1-4)GlcNAc
# How it was run: as §1
# [22] = target: GlcNAc(a1-4)Gal(b1-4)GlcNAc(b1-3)Gal(b1-4)[Fuc(a1-3)]GlcNAc(b1-3)Gal(b1-4)[Fuc(a1-3)]GlcNAc
# How it was run: as §1
# [23] = target: GlcNAc(a1-6)Gal(b1-4)GlcNAc
# How it was run: as §1
# [24] = target: GlcNAc(b1-2)Gal(b1-3)GalNAc
# How it was run: as §1
# [25] = target: GlcNAc(b1-2)Man(a1-3)[GlcNAc(b1-2)Man(a1-6)]Man(b1-4)GlcNAc(b1-4)GlcNAc
# How it was run: as §1
# [26] = target: GlcNAc(b1-2)Man(a1-3)[GlcNAc(b1-2)Man(a1-6)]Man(b1-4)GlcNAc(b1-4)[Fuc(a1-6)]GlcNAc
# How it was run: as §1
# [27] = target: GlcNAc(b1-2)Man(a1-3)[GlcNAc(b1-4)][GlcNAc(b1-2)Man(a1-6)]Man(b1-4)GlcNAc(b1-4)GlcNAc
# How it was run: as §1
# [28] = target: GlcNAc(b1-2)Man(a1-3)[GlcNAc(b1-4)][GlcNAc(b1-2)Man(a1-6)]Man(b1-4)GlcNAc(b1-4)[Fuc(a1-6)]GlcNAc
# How it was run: as §1
# [29] = target: GlcNAc(b1-2)[GlcNAc(b1-4)]Man(a1-3)[GlcNAc(b1-2)Man(a1-6)]Man(b1-4)GlcNAc(b1-4)GlcNAc
# How it was run: as §1
# [30] = target: GlcNAc(b1-2)[GlcNAc(b1-4)]Man(a1-3)[GlcNAc(b1-4)][GlcNAc(b1-2)Man(a1-6)]Man(b1-4)GlcNAc(b1-4)GlcNAc
# How it was run: as §1
# [31] = target: GlcNAc(b1-2)[GlcNAc(b1-4)]Man(a1-3)[GlcNAc(b1-4)][GlcNAc(b1-2)[GlcNAc(b1-6)]Man(a1-6)]Man(b1-4)GlcNAc(b1-4)GlcNAc
# How it was run: as §1
# [32] = target: GlcNAc(b1-2)[GlcNAc(b1-4)]Man(a1-3)[GlcNAc(b1-4)][GlcNAc(b1-2)[GlcNAc(b1-6)]Man(a1-6)]Man(b1-4)GlcNAc(b1-4)[Fuc(a1-6)]GlcNAc
# How it was run: as §1
# [33] = target: GlcNAc(b1-2)[GlcNAc(b1-6)]Man(a1-6)[GlcNAc(b1-2)Man(a1-3)]Man(b1-4)GlcNAc(b1-4)GlcNAc
# How it was run: as §1
# [34] = target: GlcNAc(b1-2)[GlcNAc(b1-6)]Man(a1-6)[GlcNAc(b1-2)Man(a1-3)]Man(b1-4)GlcNAc(b1-4)[Fuc(a1-6)]GlcNAc
# How it was run: as §1
# [35] = target: GlcNAc(b1-2)[GlcNAc(b1-6)]Man(a1-6)[GlcNAc(b1-4)][GlcNAc(b1-2)Man(a1-3)]Man(b1-4)GlcNAc(b1-4)GlcNAc
# How it was run: as §1
# [36] = target: GlcNAc(b1-3)Fuc
# How it was run: as §1
# [37] = target: GlcNAc(b1-3)Gal
# How it was run: as §1
# [38] = target: GlcNAc(b1-3)Gal(b1-3)GalNAc
# How it was run: as §1
binder,measurement,setting,value
SJCP1531 (Schistosoma japonicum) (protein) MFKVRIINLVNISTVLLLINLLQTKSQVNVEQLVTVLEVNIKAQLKNKTTEVLVEWNPLYQDNSMPEYRKLLDETCKLFLPFVNEKVPPSTYGGECTNANFSEAPQDGSYSRVNAELRLIYKYSDNPQIQTDRLQDDLNDREEFITSESSFVAYNPKFTVKIEKLFIPISESQTTPPPTTAKNDASKKDDDDNGGEDSKAPIDTFAMTASGNKGKKDDDDNGGEDSKAPIDTFAMTASGSKDERSTWTIIGIITLVVLIFVVIGGGITVFVKRC,glycan array binding signal (z-score),[1],-1.15
same,glycan array binding signal (z-score),[2],-1.04
same,glycan array binding signal (z-score),[3],-1.74
same,glycan array binding signal (z-score),[4],-0.823
same,glycan array binding signal (z-score),[5],1.38
same,glycan array binding signal (z-score),[6],-1.03
same,glycan array binding signal (z-score),[7],-0.401
same,glycan array binding signal (z-score),[8],-1.55
same,glycan array binding signal (z-score),[9],-0.797
same,glycan array binding signal (z-score),[10],0.452
same,glycan array binding signal (z-score),[11],-0.723
same,glycan array binding signal (z-score),[12],0.632
same,glycan array binding signal (z-score),[13],1.07
same,glycan array binding signal (z-score),[14],-1.52
same,glycan array binding signal (z-score),[15],0.476
same,glycan array binding signal (z-score),[16],-0.95
same,glycan array binding signal (z-score),[17],0.941
same,glycan array binding signal (z-score),[18],-1.98
same,glycan array binding signal (z-score),[19],-1.45
same,glycan array binding signal (z-score),[20],-0.361
same,glycan array binding signal (z-score),[21],-0.281
same,glycan array binding signal (z-score),[22],2.8
same,glycan array binding signal (z-score),[23],0.017
same,glycan array binding signal (z-score),[24],-1.08
same,glycan array binding signal (z-score),[25],-0.485
same,glycan array binding signal (z-score),[26],1.41
same,glycan array binding signal (z-score),[27],-0.08
same,glycan array binding signal (z-score),[28],-0.027
same,glycan array binding signal (z-score),[29],-1.18
same,glycan array binding signal (z-score),[30],-0.933
same,glycan array binding signal (z-score),[31],0.431
same,glycan array binding signal (z-score),[32],0.165
same,glycan array binding signal (z-score),[33],-1.11
same,glycan array binding signal (z-score),[34],0.501
same,glycan array binding signal (z-score),[35],-0.734
same,glycan array binding signal (z-score),[36],-0.112
same,glycan array binding signal (z-score),[37],-2.21
same,glycan array binding signal (z-score),[38],-0.173

# A different layout for some results above.
binder | measurement | setting | value
SJCP1531 (Schistosoma japonicum) (protein) MFKVRIINLVNISTVLLLINLLQTKSQVNVEQLVTVLEVNIKAQLKNKTTEVLVEWNPLYQDNSMPEYRKLLDETCKLFLPFVNEKVPPSTYGGECTNANFSEAPQDGSYSRVNAELRLIYKYSDNPQIQTDRLQDDLNDREEFITSESSFVAYNPKFTVKIEKLFIPISESQTTPPPTTAKNDASKKDDDDNGGEDSKAPIDTFAMTASGNKGKKDDDDNGGEDSKAPIDTFAMTASGSKDERSTWTIIGIITLVVLIFVVIGGGITVFVKRC | glycan array binding signal (z-score) | [29] | -1.18
same | glycan array binding signal (z-score) | [30] | -0.933
